Measurements published in patent US6297356, “Telomere repeat binding factors and diagnostic and therapeutic use thereof” (The Rockfeller University).

Chains of the proteins cited; added tags and fusions are not shown. Chains listed by the source or under a name are the forms on record and can include a tag or linker.
UniProt O35144, other isoform, or with tags, fused parts or gaps: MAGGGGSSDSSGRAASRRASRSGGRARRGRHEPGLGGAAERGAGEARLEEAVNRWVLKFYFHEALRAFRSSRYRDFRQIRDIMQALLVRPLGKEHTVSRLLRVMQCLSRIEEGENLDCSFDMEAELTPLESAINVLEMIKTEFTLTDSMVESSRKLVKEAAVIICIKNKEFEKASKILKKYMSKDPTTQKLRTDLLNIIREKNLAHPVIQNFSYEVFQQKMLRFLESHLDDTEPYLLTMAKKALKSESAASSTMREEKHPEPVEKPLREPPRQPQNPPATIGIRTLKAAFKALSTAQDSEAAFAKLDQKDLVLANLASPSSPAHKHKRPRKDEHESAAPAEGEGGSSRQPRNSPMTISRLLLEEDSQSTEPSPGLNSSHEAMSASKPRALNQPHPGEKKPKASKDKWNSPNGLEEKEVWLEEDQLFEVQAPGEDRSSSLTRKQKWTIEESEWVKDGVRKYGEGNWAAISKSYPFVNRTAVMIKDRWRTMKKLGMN
TRF1 (HeLa TRF) (Homo sapiens), one chain, as listed by the source: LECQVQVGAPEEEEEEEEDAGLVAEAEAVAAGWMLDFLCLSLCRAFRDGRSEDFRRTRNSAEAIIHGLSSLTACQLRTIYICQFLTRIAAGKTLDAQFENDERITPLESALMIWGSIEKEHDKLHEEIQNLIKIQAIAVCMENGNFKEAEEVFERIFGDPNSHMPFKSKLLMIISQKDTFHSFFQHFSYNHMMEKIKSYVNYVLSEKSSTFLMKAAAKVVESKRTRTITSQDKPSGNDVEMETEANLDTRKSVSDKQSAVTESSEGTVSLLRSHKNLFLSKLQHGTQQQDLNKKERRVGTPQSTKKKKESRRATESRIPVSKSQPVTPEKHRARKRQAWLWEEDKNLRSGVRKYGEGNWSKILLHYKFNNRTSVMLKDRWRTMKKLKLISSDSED

Key:
[1] = system: TRF1 (HeLa TRF) (Homo sapiens); test: EMSA; conditions: highly purified protein needs casein or certain other added proteins for binding; purified native protein; label: labelled
[2] = system: TRF1 endogenous (Homo sapiens); test: EMSA; conditions: HeLa whole cell extract, supershifted by TRF1 antibody; protein in an extract; label: labelled
[3] = target: TRF2 deltaN-49 (Mus musculus) (UniProt O35144); test: EMSA; conditions: supershifted by FLAG antibody; protein in a lysate after overexpression; protein details: FLAG; label: labelled
[4] = target: TRF2 full length (Mus musculus) (UniProt O35144); test: EMSA; conditions: complex seen only in presence of anti-FLAG M2 antibody; protein in a lysate after overexpression; protein details: N-terminal FLAG; label: labelled
[5] = target: TRF2 deltaN-49 (Mus musculus) (UniProt O35144); test: competition with a labelled probe; conditions: protein in a lysate after overexpression; protein details: FLAG; single-stranded DNA

Sequence	binding result [1]	binding result [2]	binding result [3]	binding result [4]	binding result [5]
GTACCCGGGGATCGTGACTCTAGAGGGGCCCTAACCCTAACCCTAACCCTAACCCTAACCCTAACCCTAACCCTAACCCTAACCCTAACCCTAACCCTAACCCTAACCCGGGTCGAATTCGATCTCTAGAGTCGACCTGCAGGCATGC (double strand) [(TTAGGG)12 restriction fragment]	binds	binds	binds	binds	–
CCCTAACCCTAACCCTAACCCTAACCCTAACCCTAA [single-stranded [CCCTAA]6]	–	–	–	–	no binding
TTAGGGTTAGGGTTAGGGTTAGGGTTAGGGTTAGGG [single-stranded [TTAGGG]6]	–	–	–	–	no binding

For part of these data: At least one result comes from cells or an extract, where the contact may be indirect. For part of these data: A negative result means that nothing was seen under these conditions. For part of these data: The exact form of at least one protein or probe is not confirmed.
